# Some of these results come from one statement about several compounds together.
# Assay: Dynamic Vapor Sorption (DVS), hygroscopicity/water uptake
# Assay type: physicochemical
# Settings: 25° C.
# Description: The Dynamic Vapour Sorption studies were performed using a Surface Measurement Systems Ltd. DVS-1 No Video, equipment #2126. The sample is loaded into balance pan, typically 20-30 mg, and equilibrated at 0% RH. […] After completion of the sorption cycle, the sample was dried using the same method. The software used for data collection is DVSWin v3.01 No Video. Data analysis is performed using DVS Standard Analysis Suite v6.3.0 (Standard).
structure (smiles),measurement,setting,value
"CN1CCN(Cc2ccc(Nc3ncc(Cl)c(Nc4ccccc4S(=O)(=O)N(C)C)n3)cc2)CC1.O=C(O)C(O)C(O)C(=O)O.O=C(O)C(O)C(O)C(=O)O [Form A, 2-((5-chloro-2-((4-((4-methylpiperazin-1-yl)methyl)phenyl)amino)pyrimidin-4-yl)amino)-N,N-dimethylbenzenesulfonamide di-tartrate salt]",water uptake at 80% RH,di-tartrate salt,4.6˜7.5%
"CN1CCN(Cc2ccc(Nc3ncc(Cl)c(Nc4ccccc4S(=O)(=O)N(C)C)n3)cc2)CC1.O=C(O)C(O)C(O)C(=O)O [Form D, 2-((5-chloro-2-((4-((4-methylpiperazin-1-yl)methyl)phenyl)amino)pyrimidin-4-yl)amino)-N,N-dimethylbenzenesulfonamide mono-tartrate salt]",water uptake at 80% RH,mono-tartrate salt,4.6˜7.5%
